Values quoted from earlier work, collected in patent US9555001B2, “Pharmaceutical composition and uses thereof” (Boehringer Ingelheim International GmbH, priority 2012, dated 2017).

Conditions: metformin on its own, in the diabetic

CN(C)C(=N)N=C(N)N [metformin]
average improvement in the HbA1c value: 1.0-1.5%
